# Measured values taken from the supplement of paper PMC3682954.
# Several values for one entry are separate records, joined by “and”; a condition that tells them apart may be missing. Identical values can stand only once. Counter-ions that a name gives are not always drawn. ± gives the standard deviation of the averaged measurements. The list shows a part of the results. Many values rest on one well or one pass, so single values are uncertain.
# Test system: RAW 264.7
# Experiment: HMGB1-induced TNF-alpha production relative to HMGB1-stimulated control; higher = more TNF-alpha secretion (less inhibition)
# Conditions: stimulus: HMGB1 5 ug/ml, 18 h
# [1] = compound concentration: 1 ug/ml
SMILES,HMGB1-induced TNF-alpha production (compound concentration: 3 uM),HMGB1-induced TNF-alpha production [1] [%]
Oc1cc2c(cc1O)C(c1ccccc1)CNCC2 (racemic),85.6%,–
COC(=O)Nc1nc2cc([S+]([O-])c3ccccc3)ccc2[nH]1 (stereo not given) [Oxfendazole],89.6%,–
COC(=O)Nc1nc2cc([S+]([O-])c3ccccc3)ccc2[nH]1 (stereo not given) [Oxfendazol],96.4%,–
COC(=O)Nc1nc2cc([S+]([O-])c3ccccc3)ccc2[nH]1 (stereo not given),104%,–
C[C@@H]1C(=O)NC2=Nc3cccc(Cl)c3CN21 [Quazinone],109%,–
COc1ccccc1OCC(O)COC(N)=O (stereo not given) [Methocarbamol],89.9%,–
COc1ccccc1OCC(O)COC(N)=O (stereo not given),94.7%,–
Nc1c2c(nc3ccccc13)CCCC2O (stereo not given) [Hydroxytacrine],94%,–
Nc1c2c(nc3ccccc13)CCCC2O (stereo not given) [Hydroxytacrine maleate],89.7%,–
Nc1ccn([C@@H]2CS[C@H](CO)O2)c(=O)n1,101%,–
Nc1ccn([C@@H]2CS[C@H](CO)O2)c(=O)n1 [Lamivudine],76.5%,–
Cc1cc(N)c2ccccc2[n+]1CCCCCCCCCC[n+]1c(C)cc(N)c2ccccc21 [Dequalinium chloride hydrate],92.2%,–
Cc1cc(N)c2ccccc2[n+]1CCCCCCCCCC[n+]1c(C)cc(N)c2ccccc21 [Dequalinium dichloride],69.6%,–
Cc1cc(N)c2ccccc2[n+]1CCCCCCCCCC[n+]1c(C)cc(N)c2ccccc21,125%,–
N#CC(C#N)=C(N)/C(C#N)=C/c1cc(O)c(O)c(O)c1 [Tyrphostin 51],97.6%,–
CO/N=C(\C(=O)N[C@@H]1C(=O)N2C(C(=O)OC(C)OC(C)=O)=C(COC(N)=O)CS[C@H]12)c1ccco1 (stereo not given in full),83.4%,–
CCN(CC)CCCCCCCCOC(=O)c1cc(OC)c(OC)c(OC)c1 [TMB-8 hydrochloride],80.8%,–
CC1=C(C2=C(C)C(C(C)C)C3=C(C(=O)C(O)C3O)C2O)C(O)C2=C(C(O)C(O)C2=O)C1C(C)C (stereo not given),–,91.3
Cn1ccc2cc3c(cc21)CCN3C(=O)Nc1cccnc1,106%,–
O=C(O)CP(=O)(O)O [Phosphonoacetic acid],122%,–
COC(=O)C1=CO[C@@H](O)[C@@H]2C(CO)=CC[C@H]12 [Genipin],80.2%,72.5
CCCOc1ccccc1-c1nc2[nH]nnc2c(=O)[nH]1 [Zaprinast],90.3 ± 22%,–
CCCOc1ccccc1-c1nc2[nH]nnc2c(=O)[nH]1,79.7%,–
CCC[C@@H]1C[C@@H](C(=O)N[C@@H]([C@H]2O[C@H](SC)[C@H](OP(=O)(O)O)[C@@H](O)[C@H]2O)[C@H](C)Cl)N(C)C1 [clindamycin 2-phosphate],–,73.6
CCC[C@@H]1C[C@@H](C(=O)N[C@@H]([C@H]2O[C@H](SC)[C@H](OP(=O)(O)O)[C@@H](O)[C@H]2O)[C@H](C)Cl)N(C)C1 [Clindamycin Phosphate],112%,–
CCCCCCNC(=O)n1cc(F)c(=O)[nH]c1=O,96.8 ± 17%,–
Nc1nc(=O)n([C@@H]2CS[C@H](CO)O2)cc1F [Emtricitabine],90.5%,–

SMILES,HMGB1-induced TNF-alpha production (compound concentration: 3 uM),HMGB1-induced TNF-alpha production [1] [%]
COc1ccc(Cl)cc1C(=O)NCCc1ccc(S(=O)(=O)NC(=O)NC2CCCCC2)cc1 [Glybenclamide],62.4%,–
COc1ccc(Cl)cc1C(=O)NCCc1ccc(S(=O)(=O)NC(=O)NC2CCCCC2)cc1 [Glyburide],89.3%,–
COc1ccc(Cl)cc1C(=O)NCCc1ccc(S(=O)(=O)NC(=O)NC2CCCCC2)cc1 [Glibenclamide],80.6%,–
COc1ccc(Cl)cc1C(=O)NCCc1ccc(S(=O)(=O)NC(=O)NC2CCCCC2)cc1,87.4%,–
CC(C)=CCC1=C(O)C(=O)c2ccccc2C1=O,81.6%,–
COc1cc(SC)ccc1C(=O)N1CCC(Cc2ccccc2)CC1,96.8%,–
CC#C[C@]1(O)CC[C@H]2[C@@H]3CCC4=CC(=O)CCC4=C3[C@@H](c3ccc(N(C)C)cc3)C[C@@]21C [Mifepristone],81.2 ± 22%,–
CC#C[C@]1(O)CC[C@H]2[C@@H]3CCC4=CC(=O)CCC4=C3[C@@H](c3ccc(N(C)C)cc3)C[C@@]21C,101%,–
CCCn1c(=O)c(C)cn2nc(N)nc12,86.7%,–
NC(C(=O)O)C(O)C(=O)O (racemic) [DL-threo-beta-hydroxyaspartic acid],77.9%,–
O=C(O)C1=CC(=C(c2ccc(O)c(C(=O)O)c2)c2ccc(O)c(C(=O)O)c2)C=CC1=O [Aurintricarboxylic acid],109%,–
C[C@@H]1C/C=C/C=C/C=C/C=C/[C@H](O[C@@H]2O[C@H](C)[C@@H](O)[C@H](N)[C@@H]2O)C[C@@H]2O[C@](O)(C[C@@H](O)C[C@H]3O[C@@H]3/C=C/C(=O)O1)C[C@H](O)[C@H]2C(=O)O,88.1%,–
CC(C(O)c1ccc(O)cc1)N1CCC(Cc2ccccc2)CC1 (stereo not given) [Ifenprodil],96.3 ± 14%,–
CC(C(O)c1ccc(O)cc1)N1CCC(Cc2ccccc2)CC1 (stereo not given) [Ifenprodil tartrate],91.3 ± 8.7%,–
CC(C(O)c1ccc(O)cc1)N1CCC(Cc2ccccc2)CC1 (stereo not given),84.1%,–
O=c1ccn([C@@H]2O[C@H](COP(=O)(O)OP(=O)(O)O)[C@@H](O)[C@H]2O)c(=O)[nH]1 [Uridine 5'-diphosphate sodium],100%,–
CC(C)[C@H](N)C(=O)OCCOCn1cnc2c(=O)nc(N)[nH]c21 [Valaciclovir],80.7%,–
CC(C)[C@H](N)C(=O)OCCOCn1cnc2c(=O)nc(N)[nH]c21,113% and 89.1%,–
CN1CCN2c3ncccc3Cc3ccccc3C2C1 (stereo not given) [Mirtazapine],79.1%,–
CN1CCN2c3ncccc3Cc3ccccc3C2C1 (stereo not given),100%,–
Cn1cc(C(F)(F)F)nc1-c1ccc(OCC(O)CNCCOc2ccc(O)c(C(N)=O)c2)cc1 (stereo not given),81%,–
CN(C(=O)CN(CCO)CC(=O)N(C)C(C)(C)Cc1ccccc1)C(C)(C)Cc1ccccc1 [Oxethazaine],56.5%,–
CN(C(=O)CN(CCO)CC(=O)N(C)C(C)(C)Cc1ccccc1)C(C)(C)Cc1ccccc1,75.9%,–
COC(=O)N/N=C/c1c[n+]([O-])c2ccccc2[n+]1[O-] [Carbadox],107 ± 7.2%,–
COC(=O)N/N=C/c1c[n+]([O-])c2ccccc2[n+]1[O-],99.5%,–
CC1(C)O[C@@H]2C[C@H]3[C@@H]4C[C@H](F)C5=CC(=O)C=C[C@]5(C)[C@@]4(F)[C@@H](O)C[C@]3(C)[C@]2(C(=O)CO)O1,35.2%,–
CC1(C)O[C@@H]2C[C@H]3[C@@H]4C[C@H](F)C5=CC(=O)C=C[C@]5(C)[C@@]4(F)[C@@H](O)C[C@]3(C)[C@]2(C(=O)CO)O1 [Fluocinolone acetonide],45.5 ± 0.98%,–
